Record: PubChem BioAssay AID652243 (Drosophila RNAi Screening Center, 2013)
Aim: 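Fly genes required for human androgen receptor driven transcription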 (primary screen). System: Drosophila S2R+ cells. Reagents: long dsRNA against Drosophila genes. Timing: 72 h (48 h, then 24 h hormone). Conditions: synthetic androgen R1881 at 10 nM for 24 h. Measured: 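Firefly light from an androgen-responsive reporter and Renilla control light per well, raw and unnormalised, for each of two replicates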. Scale: firefly reporter light: higher = more light from androgen-responsive reporter; Renilla control light: higher = more constitutive control signal (cell number, transfection). Hit rule: 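Hit when the log firefly-to-Renilla ratio dropped or increased by a fixed fold versus the mean of GFP or LacZ controls across duplicate plates; lowering cut given as 1.5 and as 3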. Calls: active = hit: reporter lowered or raised; inactive = no hit.
The deposit covers about 24,000 reagents; this is an unselected part of those that have a named target and a result. Of all reagents, 246 (1%) are marked active. 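Plates not normalised; calls are printed but the firefly/Renilla ratio behind them is not deposited; fold cut for lowering reported inconsistently.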 Raw values vary from plate to plate and are shown uncorrected. Reagents against one gene are numbered here. Not given: the amount of reagent.

What did the screen give for CG32055?
firefly reporter light, replicate 1: 1.36e6; firefly reporter light, replicate 2: 1.01e6; Renilla control light, replicate 1: 2.34e6; Renilla control light, replicate 2: 2.40e6; call: inactive

Which result is listed for Ugt35A1 #1?
firefly reporter light, replicate 1: 46602; firefly reporter light, replicate 2: 48040; Renilla control light, replicate 1: 3.22e5; Renilla control light, replicate 2: 4.46e5; call: inactive

How did the screen score Ugt35A1 #2?
firefly reporter light, replicate 1: 5.81e5; firefly reporter light, replicate 2: 3.77e5; Renilla control light, replicate 1: 1.76e6; Renilla control light, replicate 2: 6.12e5; call: inactive

How did the screen score l(3)05822 #1?
firefly reporter light, replicate 1: 1.04e5; firefly reporter light, replicate 2: 1.23e5; Renilla control light, replicate 1: 1.05e6; Renilla control light, replicate 2: 1.06e6; call: inactive

What did the screen give for l(3)05822 #2?
firefly reporter light, replicate 1: 4.20e5; firefly reporter light, replicate 2: 2.63e5; Renilla control light, replicate 1: 4.45e5; Renilla control light, replicate 2: 5.18e5; call: inactive

Which result is listed for Glyp?
firefly reporter light, replicate 1: 3.08e5; firefly reporter light, replicate 2: 3.47e5; Renilla control light, replicate 1: 2.96e6; Renilla control light, replicate 2: 3.39e6; call: inactive

What is on record for CG8519 #1?
firefly reporter light, replicate 1: 1.23e5; firefly reporter light, replicate 2: 1.45e5; Renilla control light, replicate 1: 1.38e6; Renilla control light, replicate 2: 1.70e6; call: inactive

What is on record for CG8519 #2?
firefly reporter light, replicate 1: 4.55e5; firefly reporter light, replicate 2: 3.62e5; Renilla control light, replicate 1: 6.94e5; Renilla control light, replicate 2: 6.32e5; call: inactive

For CG7094 #1, what does the deposit list?
firefly reporter light, replicate 1: 1.21e5; firefly reporter light, replicate 2: 1.24e5; Renilla control light, replicate 1: 1.01e6; Renilla control light, replicate 2: 1.08e6; call: inactive

What is on record for CG7094 #2?
firefly reporter light, replicate 1: 3.54e5; firefly reporter light, replicate 2: 3.87e5; Renilla control light, replicate 1: 1.02e6; Renilla control light, replicate 2: 1.18e6; call: inactive

With maca, what was measured?
firefly reporter light, replicate 1: 76735; firefly reporter light, replicate 2: 1.04e5; Renilla control light, replicate 1: 1.10e6; Renilla control light, replicate 2: 1.03e6; call: inactive

With lncRNA:CR30055 #1, what was measured?
firefly reporter light, replicate 1: 3.37e5; firefly reporter light, replicate 2: 7.23e5; Renilla control light, replicate 1: 4.81e5; Renilla control light, replicate 2: 1.09e6; call: inactive

For lncRNA:CR30055 #2, what does the deposit list?
firefly reporter light, replicate 1: 2.83e5; firefly reporter light, replicate 2: 2.44e5; Renilla control light, replicate 1: 3.42e5; Renilla control light, replicate 2: 3.81e5; call: inactive

4 of these entries, set out differently:
{"predicted target": "l(3)05822", "reagent no.": 1, "firefly reporter light, replicate 1": 1.04e5, "firefly reporter light, replicate 2": 1.23e5, "Renilla control light, replicate 1": 1.05e6, "Renilla control light, replicate 2": 1.06e6, "call": "inactive"}
{"predicted target": "l(3)05822", "reagent no.": 2, "firefly reporter light, replicate 1": 4.20e5, "firefly reporter light, replicate 2": 2.63e5, "Renilla control light, replicate 1": 4.45e5, "Renilla control light, replicate 2": 5.18e5, "call": "inactive"}
{"predicted target": "Glyp", "reagent no.": 1, "firefly reporter light, replicate 1": 3.08e5, "firefly reporter light, replicate 2": 3.47e5, "Renilla control light, replicate 1": 2.96e6, "Renilla control light, replicate 2": 3.39e6, "call": "inactive"}
{"predicted target": "CG8519", "reagent no.": 1, "firefly reporter light, replicate 1": 1.23e5, "firefly reporter light, replicate 2": 1.45e5, "Renilla control light, replicate 1": 1.38e6, "Renilla control light, replicate 2": 1.70e6, "call": "inactive"}

The list goes on:
What is on record for CG13315?
firefly reporter light, replicate 1: 2.63e5; firefly reporter light, replicate 2: 2.01e5; Renilla control light, replicate 1: 3.26e6; Renilla control light, replicate 2: 2.23e6; call: inactive

With LeuRS-m #1, how do the results read?
firefly reporter light, replicate 1: 7.83e5; firefly reporter light, replicate 2: 1.20e6; Renilla control light, replicate 1: 9.10e5; Renilla control light, replicate 2: 1.04e6; call: inactive

With LeuRS-m #2, how do the results read?
firefly reporter light, replicate 1: 4.12e5; firefly reporter light, replicate 2: 3.94e5; Renilla control light, replicate 1: 1.47e6; Renilla control light, replicate 2: 1.42e6; call: inactive

Which result is listed for CG2126?
firefly reporter light, replicate 1: 2.63e5; firefly reporter light, replicate 2: 2.44e5; Renilla control light, replicate 1: 2.09e6; Renilla control light, replicate 2: 2.39e6; call: inactive

For sowah #1, what was measured?
firefly reporter light, replicate 1: 1.52e5; firefly reporter light, replicate 2: 77833; Renilla control light, replicate 1: 2.94e5; Renilla control light, replicate 2: 2.15e5; call: inactive

What is on record for sowah #2?
firefly reporter light, replicate 1: 1.45e6; firefly reporter light, replicate 2: 9.78e5; Renilla control light, replicate 1: 2.31e6; Renilla control light, replicate 2: 1.87e6; call: inactive

With mei-P22, how do the results read?
firefly reporter light, replicate 1: 1.03e5; firefly reporter light, replicate 2: 95088; Renilla control light, replicate 1: 1.27e6; Renilla control light, replicate 2: 1.38e6; call: inactive

For Osi18, what does the deposit list?
firefly reporter light, replicate 1: 29313; firefly reporter light, replicate 2: 42118; Renilla control light, replicate 1: 1.09e6; Renilla control light, replicate 2: 9.31e5; call: inactive

For TwdlV, how do the results read?
firefly reporter light, replicate 1: 1.11e6; firefly reporter light, replicate 2: 9.92e5; Renilla control light, replicate 1: 8.56e5; Renilla control light, replicate 2: 1.04e6; call: inactive

With Orco #1, what was measured?
firefly reporter light, replicate 1: 1.06e5; firefly reporter light, replicate 2: 1.13e5; Renilla control light, replicate 1: 3.23e6; Renilla control light, replicate 2: 2.23e6; call: inactive

Which result is listed for Orco #2?
firefly reporter light, replicate 1: 3.51e5; firefly reporter light, replicate 2: 2.63e5; Renilla control light, replicate 1: 6.40e5; Renilla control light, replicate 2: 3.22e5; call: inactive

For Bhmt #1, what does the deposit list?
firefly reporter light, replicate 1: 1.24e5; firefly reporter light, replicate 2: 1.82e5; Renilla control light, replicate 1: 1.60e6; Renilla control light, replicate 2: 1.72e6; call: inactive

How did the screen score Bhmt #2?
firefly reporter light, replicate 1: 8.23e5; firefly reporter light, replicate 2: 7.91e5; Renilla control light, replicate 1: 1.15e6; Renilla control light, replicate 2: 1.06e6; call: inactive

Which result is listed for Pop2 #1?
firefly reporter light, replicate 1: 8.67e5; firefly reporter light, replicate 2: 6.19e5; Renilla control light, replicate 1: 1.92e6; Renilla control light, replicate 2: 1.39e6; call: inactive

What did the screen give for Pop2 #2?
firefly reporter light, replicate 1: 6.70e5; firefly reporter light, replicate 2: 4.64e5; Renilla control light, replicate 1: 2.11e6; Renilla control light, replicate 2: 1.27e6; call: inactive
